Measurements reported in paper PMC12713080.
No constants are given. Whether binding was seen depends on the method and setting. For part of these data: In cells and extracts the contact can be indirect. Some binding calls cover weakened binding; strength is not graded here. For part of these data: Sequences can lack the tags named with a protein.

Key:
[1] = molecular target: T1, HA‐TAK1 (human), O43318; assay: co-IP; in cells, with copper (Figure S5P; legend not shown); details: remark: other sources report otherwise
T1 chain: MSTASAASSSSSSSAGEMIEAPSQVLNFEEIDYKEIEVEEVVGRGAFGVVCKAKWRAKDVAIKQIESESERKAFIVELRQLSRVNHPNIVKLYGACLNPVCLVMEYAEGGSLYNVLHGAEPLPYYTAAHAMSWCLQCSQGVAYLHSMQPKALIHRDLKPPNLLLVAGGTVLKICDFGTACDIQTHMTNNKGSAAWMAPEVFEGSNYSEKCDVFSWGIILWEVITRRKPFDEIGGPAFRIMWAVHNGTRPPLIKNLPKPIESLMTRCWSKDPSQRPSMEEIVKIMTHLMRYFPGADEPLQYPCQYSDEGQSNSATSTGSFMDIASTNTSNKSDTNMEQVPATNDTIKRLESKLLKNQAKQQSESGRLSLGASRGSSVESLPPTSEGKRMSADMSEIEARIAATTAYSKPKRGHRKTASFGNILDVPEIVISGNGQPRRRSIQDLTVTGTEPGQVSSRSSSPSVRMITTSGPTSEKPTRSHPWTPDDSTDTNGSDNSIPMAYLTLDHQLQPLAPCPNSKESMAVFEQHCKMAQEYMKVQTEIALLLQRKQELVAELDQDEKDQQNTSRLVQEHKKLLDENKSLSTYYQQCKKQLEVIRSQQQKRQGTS

[2] = molecular target: T1, HA‐TAK1 (human), O43318; assay: co-IP; HEK293T cells cotransfected with the indicated constructs; IP with anti-HA beads, immunoblot (Figure 3N; Figures S5Q,R); details: remark: other sources report otherwise
[3] = molecular target: T2, Human TAK1 Protein (HY‐P703591) (human), O43318; assay: co-IP; purified Flag-TRAF2 and bought TAK1 incubated with anti-TAK1 antibody and protein A/G agarose with or without CuSO4 (50 µM) for 10 h at 4 °C; washed 4 times with NETN buffer; both purified; details: remark: other sources report otherwise
T2 chain: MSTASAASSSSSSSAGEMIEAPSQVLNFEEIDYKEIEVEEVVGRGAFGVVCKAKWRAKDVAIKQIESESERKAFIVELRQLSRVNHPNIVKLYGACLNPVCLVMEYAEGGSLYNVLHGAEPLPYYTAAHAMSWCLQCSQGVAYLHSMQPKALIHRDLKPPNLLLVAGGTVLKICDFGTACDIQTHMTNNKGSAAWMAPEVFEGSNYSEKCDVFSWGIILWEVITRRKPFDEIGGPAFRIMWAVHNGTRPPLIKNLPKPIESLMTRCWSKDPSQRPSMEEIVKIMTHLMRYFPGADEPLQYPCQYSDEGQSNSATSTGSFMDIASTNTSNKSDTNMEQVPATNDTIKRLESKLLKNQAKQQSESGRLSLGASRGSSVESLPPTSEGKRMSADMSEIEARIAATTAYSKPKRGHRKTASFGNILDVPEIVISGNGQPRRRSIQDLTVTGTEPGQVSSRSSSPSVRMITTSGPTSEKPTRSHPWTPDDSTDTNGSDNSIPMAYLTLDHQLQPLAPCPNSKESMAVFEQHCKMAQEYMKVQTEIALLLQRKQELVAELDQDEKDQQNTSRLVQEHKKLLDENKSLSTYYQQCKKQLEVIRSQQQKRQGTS

[4] = molecular target: DLAT (human (endogenous in MDA-MB-231 and BT-549)) (UniProt P10515); assay: SDS-PAGE without dithiothreitol and immunoblot; cells treated with elesclomol alone, with IKKβ knock-down or with QNZ; lysed in EBC buffer; dithiothreitol-free loading buffer, 70 °C 10 min; 6% SDS-PAGE
[5] = molecular target: T1, HA‐TAK1 (human), O43318; assay: co-IP; TAK1 wild type or copper binding-deficient TAK1, with copper (Figures S5J-L; legends not shown); details: remark: other sources report otherwise
[6] = molecular target: T3, transforming growth factor β‐activated kinase 1 (TAK1), endogenous (human (endogenous in MDA-MB-231)) (UniProt O43318); assay: co-IP; as a1, cells treated with the copper chelator TTM (50 µM)
T3 sequence: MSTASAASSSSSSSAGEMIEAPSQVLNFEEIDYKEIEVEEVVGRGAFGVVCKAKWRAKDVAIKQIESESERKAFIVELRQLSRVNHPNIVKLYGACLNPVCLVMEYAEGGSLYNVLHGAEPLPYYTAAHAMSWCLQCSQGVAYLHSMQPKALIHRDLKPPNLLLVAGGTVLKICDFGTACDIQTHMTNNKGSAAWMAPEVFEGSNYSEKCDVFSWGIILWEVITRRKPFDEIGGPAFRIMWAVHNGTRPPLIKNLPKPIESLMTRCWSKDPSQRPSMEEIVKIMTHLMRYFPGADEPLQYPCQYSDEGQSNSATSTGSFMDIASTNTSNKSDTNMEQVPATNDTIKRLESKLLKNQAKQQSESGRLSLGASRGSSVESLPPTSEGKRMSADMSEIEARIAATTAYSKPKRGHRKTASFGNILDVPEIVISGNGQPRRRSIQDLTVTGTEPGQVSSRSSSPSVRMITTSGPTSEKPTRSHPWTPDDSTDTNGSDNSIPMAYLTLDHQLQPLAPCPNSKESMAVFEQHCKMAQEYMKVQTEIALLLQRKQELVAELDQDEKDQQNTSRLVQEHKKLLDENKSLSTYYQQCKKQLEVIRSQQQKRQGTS

B1: Flag‐TRAF2, Q12933 1-501 (protein)
chain: MAAASVTPPGSLELLQPGFSKTLLGTKLEAKYLCSACRNVLRRPFQAQCGHRYCSFCLASILSSGPQNCAACVHEGIYEEGISILESSSAFPDNAARREVESLPAVCPSDGCTWKGTLKEYESCHEGRCPLMLTECPACKGLVRLGEKERHLEHECPERSLSCRHCRAPCCGADVKAHHEVCPKFPLTCDGCGKKKIPREKFQDHVKTCGKCRVPCRFHAIGCLETVEGEKQQEHEVQWLREHLAMLLSSVLEAKPLLGDQSHAGSELLQRCESLEKKTATFENIVCVLNREVERVAMTAEACSRQHRLDQDKIEALSSKVQQLERSIGLKDLAMADLEQKVLEMEASTYDGVFIWKISDFARKRQEAVAGRIPAIFSPAFYTSRYGYKMCLRIYLNGDGTGRGTHLSLFFVVMKGPNDALLRWPFNQKVTLMLLDQNNREHVIDAFRPDVTSSSFQRPVNDMNIASGCPLFCPVSKMEAKNSYVRDDAIFIKAIVDLTGL
[1]
  binding: binds
[2]
  binding: binds
[3]
  binding: binds

B2: DLAT (protein, UniProt P10515 87-647)
chain: SLPPHQKVPLPSLSPTMQAGTIARWEKKEGDKINEGDLIAEVETDKATVGFESLEECYMAKILVAEGTRDVPIGAIICITVGKPEDIEAFKNYTLDSSAAPTPQAAPAPTPAATASPPTPSAQAPGSSYPPHMQVLLPALSPTMTMGTVQRWEKKVGEKLSEGDLLAEIETDKATIGFEVQEEGYLAKILVPEGTRDVPLGTPLCIIVEKEADISAFADYRPTEVTDLKPQVPPPTPPPVAAVPPTPQPLAPTPSAPCPATPAGPKGRVFVSPLAKKLAVEKGIDLTQVKGTGPDGRITKKDIDSFVPSKVAPAPAAVVPPTGPGMAPVPTGVFTDIPISNIRRVIAQRLMQSKQTIPHYYLSIDVNMGEVLLVRKELNKILEGRSKISVNDFIIKASALACLKVPEANSSWMDTVIRQNHVVDVSVAVSTPAGLITPIVFNAHIKGVETIANDVVSLATKAREGKLQPHEFQGGTFTISNLGMFGIKNFSAIINPPQACILAIGASEDKLVPADNEKGFDVASMMSVTLSCDHRVVDGAVGAQWLAEFRKYLEKPITMLL
[4]
  binding: binds

B3: IKKβ (construct of the supplementary figures not shown), O14920 1-756 (protein)
chain: MSWSPSLTTQTCGAWEMKERLGTGGFGNVIRWHNQETGEQIAIKQCRQELSPRNRERWCLEIQIMRRLTHPNVVAARDVPEGMQNLAPNDLPLLAMEYCQGGDLRKYLNQFENCCGLREGAILTLLSDIASALRYLHENRIIHRDLKPENIVLQQGEQRLIHKIIDLGYAKELDQGSLCTSFVGTLQYLAPELLEQQKYTVTVDYWSFGTLAFECITGFRPFLPNWQPVQWHSKVRQKSEVDIVVSEDLNGTVKFSSSLPYPNNLNSVLAERLEKWLQLMLMWHPRQRGTDPTYGPNGCFKALDDILNLKLVHILNMVTGTIHTYPVTEDESLQSLKARIQQDTGIPEEDQELLQEAGLALIPDKPATQCISDGKLNEGHTLDMDLVFLFDNSKITYETQISPRPQPESVSCILQEPKRNLAFFQLRKVWGQVWHSIQTLKEDCNRLQQGQRAAMMNLLRNNSCLSKMKNSMASMSQQLKAKLDFFKTSIQIDLEKYSEQTEFGITSDKLLLAWREMEQAVELCGRENEVKLLVERMMALQTDIVDLQRSPMGRKQGGTLDDLEEQARELYRRLREKPRDQRTEGDSQEMVRLLLQAIQSFEKKVRVIYTQLSKTVVCKQKALELLPKVEEVVSLMNEDEKTVVRLQEKRQKELWNLLKIACSKVRGPVSGSPDSMNASRLSQPGQLMSQPSTASNSLPEPAKKSEELVAEAHNLCTLLENAIQDTVREQDQSFTALDWSWLQTEEEEHSCLEQAS
[5]
  binding: binds

B4: IκB kinase β (IKKβ), endogenous (protein, UniProt O14920 1-756)
chain: MSWSPSLTTQTCGAWEMKERLGTGGFGNVIRWHNQETGEQIAIKQCRQELSPRNRERWCLEIQIMRRLTHPNVVAARDVPEGMQNLAPNDLPLLAMEYCQGGDLRKYLNQFENCCGLREGAILTLLSDIASALRYLHENRIIHRDLKPENIVLQQGEQRLIHKIIDLGYAKELDQGSLCTSFVGTLQYLAPELLEQQKYTVTVDYWSFGTLAFECITGFRPFLPNWQPVQWHSKVRQKSEVDIVVSEDLNGTVKFSSSLPYPNNLNSVLAERLEKWLQLMLMWHPRQRGTDPTYGPNGCFKALDDILNLKLVHILNMVTGTIHTYPVTEDESLQSLKARIQQDTGIPEEDQELLQEAGLALIPDKPATQCISDGKLNEGHTLDMDLVFLFDNSKITYETQISPRPQPESVSCILQEPKRNLAFFQLRKVWGQVWHSIQTLKEDCNRLQQGQRAAMMNLLRNNSCLSKMKNSMASMSQQLKAKLDFFKTSIQIDLEKYSEQTEFGITSDKLLLAWREMEQAVELCGRENEVKLLVERMMALQTDIVDLQRSPMGRKQGGTLDDLEEQARELYRRLREKPRDQRTEGDSQEMVRLLLQAIQSFEKKVRVIYTQLSKTVVCKQKALELLPKVEEVVSLMNEDEKTVVRLQEKRQKELWNLLKIACSKVRGPVSGSPDSMNASRLSQPGQLMSQPSTASNSLPEPAKKSEELVAEAHNLCTLLENAIQDTVREQDQSFTALDWSWLQTEEEEHSCLEQAS
[6]
  binding: no binding (condition: cells treated with TTM (50 µM))
